Values quoted from earlier work as cited in patent publication US20190046600A1, “COMPOSITIONS AND USES THEREOF” (priority 2016, published 2019).
Some of these results come from one statement about several compounds together. Some ranges recur; such a range may be that of the whole group of compounds. Peptide text beside a SMILES is read from it.

Tested on: human cancer cell lines
Details: low specific activity of earlier cyclic peptides; cited from earlier work
For “Cyc-[PRGPRPVKLALKLALKFP] (cyclic; cyclic peptide; (1)..(18) cyclic peptide) [THR53]”, the IC50 is given as 100 to 200 µM. In the case of CC(C)C[C@@H]1NC(=O)[C@H](C)NC(=O)[C@H](C(C)C)NC(=O)[C@@H]2CCCN2C(=O)[C@H](CCCNC(=N)N)NC(=O)[C@@H]2CCCN2C(=O)CNC(=O)[C@H](CCCNC(=N)N)NC(=O)[C@@H]2CCCN2C(=O)[C@H](CC(C)C)NC(=O)[C@H](C)NC(=O)[C@H](CC(C)C)NC(=O)[C@H](CCCCN)NC(=O)[C@H](CC(C)C)NC(=O)[C@H](C)NC(=O)[C@H](CC(C)C)NC(=O)[C@H](CCCCN)NC1=O [HILR-001] (cyclo(PRGPRPVALKLALKLAL)), the IC50 is given as 100 to 200 µM. For Cyc-[PRGPRPvalklalkalal] [THR79], the IC50 is given as 100 to 200 µM.
